According to US20060165670A1, “Synbiotic combination” (priority 2003, published 2006):
At least one structure is not confirmed: it was looked up by name or label, or the drawing left a doubt.

System: yeasts
Assay: Continuous culture chemostat with faecal inocula and antimicrobials
Type: cell-based
Details: 1 gl^−1 in medium, compared to control chemostats
Description: (i) Continuous culture system: Three chemostats are set up in a parallel; each is maintained under nitrogen gas, at 37° C., pH 6.5 and a dilution rate of 0.066 h^−1. These conditions are set to resemble conditions typically found in the distal region of the human colon. The chemostats are fed with a control growth medium which comprised (gl^−1 in distilled water): yeast extract 2, peptone water 2, NaCl 0.1, K2HPO4 0.04, KH2PO4 0.04, MgSO4.7H2O 0.01, CaCl2.H2O 0.01, NaHCO3 2, Tween 80 2, hemin 0.05, Vitamin K1 0.01, cysteine.HCl 0.5, bile salts 0.5, glucose 0.4, starch 3, pectin 2 and arabinogalactan 1. The medium is autoclaved at 121° C. for 30 min and, whilst still hot, placed under nitrogen gas. After the medium has cooled, 1 gl^−1 of filter sterilised tetracycline or 1 gl^−1 of filter sterilised nystatin is aseptically added to the medium reservoir. Control chemostats with no antimicrobials added are also run. […]
(iii) Microbial culture techniques: A sample is taken from each fecal slurry used as inocula and 1 ml samples are also removed from each chemostat when the fermentation system has reached steady state (after 164 h). […] After 24-48 h of Incubation aerobic colonies are counted and after 48-72 h of incubation anaerobic plates are enumerated. […]

CN(C)[C@@H]1C(O)=C(C(N)=O)C(=O)[C@@]2(O)C(O)=C3C(=O)c4c(O)cccc4[C@@](C)(O)[C@H]3C[C@@H]12 [tetracycline]
effect on yeasts: allows yeasts to increase
